Earlier results, collected in patent US5840936A, “Aminosterol compounds useful as inhibitors of the sodium/proton exchanger (NHE)” (priority 1995, dated 1998).
At least one compound was matched to its structure with a doubt left.

Assays:
NHE3 = conditions: read-out: Ki NHE3 (Table B); cited from earlier work
NHE1 = conditions: read-out: Ki NHE1 (Table B); cited from earlier work
NHE2 = conditions: read-out: Ki NHE2 (Table B); cited from earlier work

## CS(=O)(=O)c1cc(C(=O)N=C(N)N)ccc1N1CCCCC1 [(3-methylsulfonyl-4-piperidinobenzoyl) guanidine methanesulfonate]
NHE3
  Ki: 650 µM
NHE1
  Ki: 0.16 µM
NHE2
  Ki: 5 µM
